Our source for the binding values is PMC10333598.

These are yes or no findings as the source states them, for the method shown. For some of these results: A result given as binding can be weak or reduced; the word gives no strength.

In experiment [1] the target is T1, full-length human TCTP (FL-TCTP) (human) (UniProt P13693).
T1 sequence: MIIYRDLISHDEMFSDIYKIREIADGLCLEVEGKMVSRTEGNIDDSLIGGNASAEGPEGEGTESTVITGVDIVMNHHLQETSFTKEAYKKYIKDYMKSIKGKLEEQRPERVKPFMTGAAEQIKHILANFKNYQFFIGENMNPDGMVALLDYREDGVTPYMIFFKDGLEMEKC
Description: NMR titration; 15N and 13C SOFAST-HMQC of labeled TCTP (100 μM) with unlabeled Mcl-1 (2 eq., 2 h incubation); 950 MHz, 278 K, 50 mM EPPS pH 8, 50 mM MES, 50 mM NaCl, 2 mM TCEP; both purified.

Experiment [2] has as its target human Mcl-1 ΔPESTΔTM (human). Description: NMR competition; 15N-FL-TCTP−Mcl-1 complex formed first, then TCTPBH3 added; reciprocal: TCTPBH3−Mcl-1 complex formed first, then FL-TCTP added (1D methyl signals); both purified.
The target in experiment [3] is human Mcl-1 ΔPESTΔTM (human). Description: NMR titration; 15N SOFAST-HMQC of 15N-Mcl-1 (100 μM) with unlabeled FL-TCTP (2 eq., 2 h incubation) or TCTPBH3 peptide; 950 MHz, 308 K, 50 mM EPPS pH 8, 50 mM MES, 50 mM NaCl, 2 mM TCEP; both purified.
The target in experiment [4] is human Mcl-1 ΔPESTΔTM (human). The experiment can be described thus: condition: only Mcl-1 already in complex with the competitor TCTPBH3; NMR competition; 15N-FL-TCTP−Mcl-1 complex formed first, then TCTPBH3 added; reciprocal: TCTPBH3−Mcl-1 complex formed first, then FL-TCTP added (1D methyl signals); both purified.
Experiment [5] concerns the target human Mcl-1 ΔPESTΔTM (human). Description: condition: only in an equimolar mix with the competitors TCTPBH3D16I and MuleBH3 (5 eq. total); NMR competition (15N SOFAST-HMQC); 15N-Mcl-1 with an excess (5 eq. total) of an equimolar mix of TCTPBH3, TCTPBH3D16I and MuleBH3, 2 h at room temperature; populations from intensities of seven reporter residues; 950 MHz, 298 K, 50 mM MES pH 6.5, 50 mM EPPS, 50 mM NaCl, 2 mM TCEP; both purified.

“human Mcl-1 ΔPESTΔTM (domain or fragment)”: the binding result in experiment [1] is listed as “binds”.

B1: full-length human TCTP (FL-TCTP) (protein, UniProt P13693 1-172)
chain: T1 sequence
For B1, the binding result in experiment [2] is listed as “binds”; in experiment [3], “binds”; in experiment [4] it was “no binding”.

B2: TCTP BH3-like peptide (TCTPBH3) (peptide, UniProt P13693 11-32)
peptide: DEMFSDIYKIREIADGLCLEVE
Regarding B2, the figures for the binding entry in experiment [2], in experiment [3] and in experiment [5] were “binds”, “binds” and “no binding”, respectively.
